Laboratory results as given in patent US20250302832A1, “PYRAZINE DERIVATIVES AND USES THEREOF” (FOGHORN THERAPEUTICS INC., priority 2022, published 2025).
Structures were worked out from names or drawings and are uncertain.

Protein sequences, listed by entry. Tags and fused reporters are not part of them.
UniProt P51531, whole entry: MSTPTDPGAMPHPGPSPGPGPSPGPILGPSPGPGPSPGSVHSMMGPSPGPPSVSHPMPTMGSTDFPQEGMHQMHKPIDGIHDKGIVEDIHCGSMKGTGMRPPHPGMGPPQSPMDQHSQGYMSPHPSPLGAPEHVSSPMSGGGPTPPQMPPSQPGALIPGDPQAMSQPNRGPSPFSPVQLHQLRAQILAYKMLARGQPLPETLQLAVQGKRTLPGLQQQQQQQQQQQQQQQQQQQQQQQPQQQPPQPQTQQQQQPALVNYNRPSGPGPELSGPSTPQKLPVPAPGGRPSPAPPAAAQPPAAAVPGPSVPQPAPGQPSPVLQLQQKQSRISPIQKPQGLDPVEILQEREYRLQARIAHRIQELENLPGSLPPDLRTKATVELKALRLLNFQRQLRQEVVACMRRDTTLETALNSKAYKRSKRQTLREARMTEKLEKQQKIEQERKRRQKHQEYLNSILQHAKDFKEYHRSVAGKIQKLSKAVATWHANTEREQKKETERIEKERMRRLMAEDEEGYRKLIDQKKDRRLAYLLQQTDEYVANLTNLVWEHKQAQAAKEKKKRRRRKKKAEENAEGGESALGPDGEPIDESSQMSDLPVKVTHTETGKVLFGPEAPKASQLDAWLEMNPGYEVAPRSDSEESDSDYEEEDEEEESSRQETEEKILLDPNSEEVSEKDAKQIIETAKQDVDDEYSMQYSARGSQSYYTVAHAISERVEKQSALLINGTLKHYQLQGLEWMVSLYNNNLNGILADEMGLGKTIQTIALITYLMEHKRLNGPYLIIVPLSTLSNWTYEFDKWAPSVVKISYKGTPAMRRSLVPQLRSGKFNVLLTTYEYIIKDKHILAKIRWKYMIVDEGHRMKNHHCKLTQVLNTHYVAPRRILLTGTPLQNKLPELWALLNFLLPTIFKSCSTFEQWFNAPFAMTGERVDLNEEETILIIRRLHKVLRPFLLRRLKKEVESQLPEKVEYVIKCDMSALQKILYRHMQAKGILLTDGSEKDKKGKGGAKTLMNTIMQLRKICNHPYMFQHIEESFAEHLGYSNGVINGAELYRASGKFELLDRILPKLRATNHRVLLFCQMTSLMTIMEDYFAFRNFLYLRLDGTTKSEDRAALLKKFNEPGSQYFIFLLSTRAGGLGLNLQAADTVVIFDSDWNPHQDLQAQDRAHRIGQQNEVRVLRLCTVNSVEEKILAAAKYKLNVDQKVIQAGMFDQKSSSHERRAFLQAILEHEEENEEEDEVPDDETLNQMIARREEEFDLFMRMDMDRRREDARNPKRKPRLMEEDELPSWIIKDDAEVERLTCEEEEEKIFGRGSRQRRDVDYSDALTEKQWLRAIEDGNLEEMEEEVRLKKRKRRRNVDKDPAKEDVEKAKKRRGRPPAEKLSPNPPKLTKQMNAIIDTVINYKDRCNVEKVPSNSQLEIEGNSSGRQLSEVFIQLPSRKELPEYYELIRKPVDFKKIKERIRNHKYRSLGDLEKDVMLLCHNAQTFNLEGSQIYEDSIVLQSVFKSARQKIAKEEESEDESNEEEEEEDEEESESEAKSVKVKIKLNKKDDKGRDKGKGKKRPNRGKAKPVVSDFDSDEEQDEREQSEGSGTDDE
UniProt P51532, whole entry: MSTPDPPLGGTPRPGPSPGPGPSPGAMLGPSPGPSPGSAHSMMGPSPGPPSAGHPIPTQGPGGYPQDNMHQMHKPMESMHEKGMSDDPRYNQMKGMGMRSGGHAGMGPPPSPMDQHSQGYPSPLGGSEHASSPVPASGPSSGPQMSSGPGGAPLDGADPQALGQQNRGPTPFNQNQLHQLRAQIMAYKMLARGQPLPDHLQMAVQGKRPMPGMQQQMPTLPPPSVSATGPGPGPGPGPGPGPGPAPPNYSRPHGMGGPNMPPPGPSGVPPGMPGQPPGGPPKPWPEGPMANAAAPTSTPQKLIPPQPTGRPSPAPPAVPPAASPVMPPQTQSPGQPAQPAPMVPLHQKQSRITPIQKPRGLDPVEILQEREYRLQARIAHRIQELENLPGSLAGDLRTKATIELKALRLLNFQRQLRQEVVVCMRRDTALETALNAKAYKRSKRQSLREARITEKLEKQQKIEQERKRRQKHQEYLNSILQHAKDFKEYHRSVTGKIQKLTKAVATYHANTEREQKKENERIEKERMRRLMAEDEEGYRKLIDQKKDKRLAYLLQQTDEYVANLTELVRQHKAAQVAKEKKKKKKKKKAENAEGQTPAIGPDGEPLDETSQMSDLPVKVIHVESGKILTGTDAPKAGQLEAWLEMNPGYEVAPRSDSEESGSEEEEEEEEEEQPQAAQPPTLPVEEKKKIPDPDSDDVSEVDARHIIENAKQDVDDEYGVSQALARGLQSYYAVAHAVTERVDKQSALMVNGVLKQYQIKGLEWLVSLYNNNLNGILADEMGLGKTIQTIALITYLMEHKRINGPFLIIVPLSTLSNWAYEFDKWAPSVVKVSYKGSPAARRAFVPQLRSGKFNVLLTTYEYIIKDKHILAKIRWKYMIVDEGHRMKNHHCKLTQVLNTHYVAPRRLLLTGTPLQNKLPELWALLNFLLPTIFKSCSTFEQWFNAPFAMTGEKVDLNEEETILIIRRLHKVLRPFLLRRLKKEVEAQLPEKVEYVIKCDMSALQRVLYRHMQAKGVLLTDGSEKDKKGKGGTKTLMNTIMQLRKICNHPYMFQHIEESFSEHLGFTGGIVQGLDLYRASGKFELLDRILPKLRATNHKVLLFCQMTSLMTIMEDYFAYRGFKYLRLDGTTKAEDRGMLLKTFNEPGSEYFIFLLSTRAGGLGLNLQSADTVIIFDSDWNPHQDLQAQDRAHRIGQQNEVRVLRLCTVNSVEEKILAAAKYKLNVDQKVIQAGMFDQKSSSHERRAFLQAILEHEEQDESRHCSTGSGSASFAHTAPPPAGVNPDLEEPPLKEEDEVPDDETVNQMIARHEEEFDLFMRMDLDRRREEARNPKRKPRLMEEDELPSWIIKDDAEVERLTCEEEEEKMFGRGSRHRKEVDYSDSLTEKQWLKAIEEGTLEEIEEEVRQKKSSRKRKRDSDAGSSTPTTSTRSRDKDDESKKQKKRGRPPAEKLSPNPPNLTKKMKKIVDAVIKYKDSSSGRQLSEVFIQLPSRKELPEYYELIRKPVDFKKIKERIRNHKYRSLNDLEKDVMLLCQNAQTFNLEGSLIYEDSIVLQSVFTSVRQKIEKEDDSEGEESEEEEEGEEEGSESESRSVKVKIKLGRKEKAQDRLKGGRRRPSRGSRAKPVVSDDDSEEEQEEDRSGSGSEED

Key:
[1] = biological target: HiBit-BRM fusion protein (Homo sapiens, UniProt P51531); assay: HiBiT-BRM cell-based degradation assay (Nano-Glo HiBiT lytic detection, 24 h)
Description: Procedure: A stable HeLa cell line expressing HiBiT-BRM was generated. On day 0, 5000 cells were seeded in 40 μL of media into each well of 384-well cell culture plates. On day 1, cells were treated with 120 nL DMSO or 120 nL of 3-fold serially DMSO-diluted compounds (10 points in duplicate with 30 μM as final top dose). Subsequently plates were incubated for 24 h in a standard tissue culture incubator and equilibrated at room temperature for 15 minutes. Nano-GB HiBiT Lytic Detection System (Promega N3050) reagent was freshly prepared and 20 ul was added to each well. Upon addition of this LgBit-containing reagent, the HiBiT and LgBiT proteins associate to form the luminescent NanoBiT luciferase. The plates were shaken for 10 minutes at room temperature and the bioluminescence read using an EnVision plate reader (PerkinElmer).
The degradation % was calculated using the following formula: % degradation=100%−100%×(Lumsample−LuMLC)/(LuMHC−LuMLC). DMSO treated cells are employed as High Control (HC) and 2 μM of a known BRM/BRG1 degrader standard treated cells are employed as Low Control (LC).

[2] = biological target: HiBit-BRG1 fusion protein (Homo sapiens, UniProt P51532); assay: HiBiT-BRG1 cell-based degradation assay (Nano-Glo HiBiT lytic detection, 24 h)

For Cc1ncsc1-c1ccc([C@H](C)NC(=O)[C@@H]2C[C@@H](O)CN2C(=O)[C@@H](c2cc(-c3cnc(N4CCC(c5cc6nnc(-c7ccccc7O)cc6[nH]5)CC4)nc3)no2)C(C)C)cc1, the “BRM HiBit Degradation Maximum (%)” value ([1]; HeLa cell line expressing HiBiT-BRM) was “A (“A” indicates maximum degradation ≥75%)”, the IC50 ([1]; read-out: BRM HiBit Degradation IC50, HeLa cell line expressing HiBiT-BRM) was < 10 nM and the “BRG1 HiBit Degradation Maximum (%)” value ([2]; HeLa cell line expressing HiBit-BRG1 and LgBit) was “A (“A” indicates maximum degradation ≥75%)”. For the same compound, the IC50 ([2]; read-out: BRMG1 HiBit Degradation IC50, HeLa cell line expressing HiBit-BRG1 and LgBit) was < 10 nM.
